PubChem BioAssay AID720576 (National Center for Advancing Translational Sciences (NCATS), 2013)
Inconclusive means that the source gave no clear call. Such entries were picked first, then a sample of the others. Potencies beside an inconclusive call are fits to weak or partial responses and may not hold up. Activity calls are given as the source filed them. Calls follow the shape of the dose curve; as a rule, active = well fitted inhibition curve with a large enough effect; inconclusive = small, poorly fitted or top-dose-only effect; inactive = no such curve, though single readings can be large or run the other way.

Assay: qHTS Assay for Inhibitors of Hepatitis C Virus (HCV): Cytotoxicity Counterscreen for Cherry-picked Compounds
Settings: HCV host cell line cytotoxicity counterscreen; activity change, negative = cytotoxicity: at 41.8 µM (top of the series)
Outline: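 Plate Huh cells (1,000 cells/well); culture 4 h; add compound; incubate 44 h, 37C, 5% CO2; add CellTiter-Glo; 15 min RT; read luminescence.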
% is scaled to controls: 0 for no effect and ±100 for the full control effect; potency is read from the fitted curve at half-maximal effect.
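Also: 44 h compound exposure; nearly all actives have a fitted effect of over 55% in size.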

Compound	Potency	activity change, negative = cytotoxicity
Nc1nc(Cl)cc(N2CCC(c3cc(-c4ccc(Cl)cc4)n[nH]3)CC2)n1	inconclusive: 19.9 µM [inhibitor, partial curve, poor fit]	
COc1ccc(C(=O)NC2CCCc3c2cnn3-c2ccccc2F)cc1OC (configuration not stated)	inconclusive: 11.2 µM [inhibitor, partial curve, poor fit]	
CCOC(=O)c1c(C)n(C)c2cc(Br)c(OC)cc12		inactive: 16.1%
CCOC(=O)c1ccc(NC(=S)N(CCCN2CCCC2)Cc2cccs2)cc1		inactive: 22%
N=c1c(C(=O)NCc2ccco2)cc2c(=O)n3ccccc3nc2n1Cc1ccccc1	inconclusive: 0.315 µM [inhibitor, single point]	
CCOc1nc(-c2ccccc2O)nc2ccccc12	active: 0.887 µM	
Cc1ccc(-n2nnnc2SCCNS(=O)(=O)c2ccccc2)cc1C		inactive: -16.5%
Cc1[nH]nc2c1-c1nc3ccccc3nc1C(C)(C)C2	inconclusive: 31.5 µM [inhibitor, single point]	
CC(C)n1c(NCCc2ccccc2)nc2c1c(=O)n(C)c(=O)n2C	inconclusive: 44.5 µM [inhibitor, partial curve, poor fit]	
COc1ccc(CCC(C)NC(=O)Cc2ccc(OC)c(OC)c2)c(OC)c1 (configuration not stated)	inconclusive: 31.5 µM [inhibitor, partial curve]	
Cc1noc(/C=C/c2ccccc2F)c1S(=O)(=O)N1CCC(C(=O)N2CCN(C)CC2)CC1	inconclusive: 4.99 µM [inhibitor, partial curve]	
NC(=S)NN=Cc1nccc2ccccc12	inconclusive: 6.28 µM [inhibitor, full curve]	

Three compounds out of the list, sorted by length of the SMILES, low to high.
Compound	Potency	activity change, negative = cytotoxicity
Cc1ccc(-n2nnnc2SCCNS(=O)(=O)c2ccccc2)cc1C		inactive: -16.5%
CCOC(=O)c1ccc(NC(=S)N(CCCN2CCCC2)Cc2cccs2)cc1		inactive: 22%
N=c1c(C(=O)NCc2ccco2)cc2c(=O)n3ccccc3nc2n1Cc1ccccc1	inconclusive: 0.315 µM [inhibitor, single point]	
